PMC3459987
These are yes or no findings as the source states them, for the method shown. In cells and extracts the contact can be indirect. Some entries that bind do so weakly or less than the wild type.

Sequences of proteins named here, by UniProt entry; tags and fusion partners are left off.
UniProt P0DP91: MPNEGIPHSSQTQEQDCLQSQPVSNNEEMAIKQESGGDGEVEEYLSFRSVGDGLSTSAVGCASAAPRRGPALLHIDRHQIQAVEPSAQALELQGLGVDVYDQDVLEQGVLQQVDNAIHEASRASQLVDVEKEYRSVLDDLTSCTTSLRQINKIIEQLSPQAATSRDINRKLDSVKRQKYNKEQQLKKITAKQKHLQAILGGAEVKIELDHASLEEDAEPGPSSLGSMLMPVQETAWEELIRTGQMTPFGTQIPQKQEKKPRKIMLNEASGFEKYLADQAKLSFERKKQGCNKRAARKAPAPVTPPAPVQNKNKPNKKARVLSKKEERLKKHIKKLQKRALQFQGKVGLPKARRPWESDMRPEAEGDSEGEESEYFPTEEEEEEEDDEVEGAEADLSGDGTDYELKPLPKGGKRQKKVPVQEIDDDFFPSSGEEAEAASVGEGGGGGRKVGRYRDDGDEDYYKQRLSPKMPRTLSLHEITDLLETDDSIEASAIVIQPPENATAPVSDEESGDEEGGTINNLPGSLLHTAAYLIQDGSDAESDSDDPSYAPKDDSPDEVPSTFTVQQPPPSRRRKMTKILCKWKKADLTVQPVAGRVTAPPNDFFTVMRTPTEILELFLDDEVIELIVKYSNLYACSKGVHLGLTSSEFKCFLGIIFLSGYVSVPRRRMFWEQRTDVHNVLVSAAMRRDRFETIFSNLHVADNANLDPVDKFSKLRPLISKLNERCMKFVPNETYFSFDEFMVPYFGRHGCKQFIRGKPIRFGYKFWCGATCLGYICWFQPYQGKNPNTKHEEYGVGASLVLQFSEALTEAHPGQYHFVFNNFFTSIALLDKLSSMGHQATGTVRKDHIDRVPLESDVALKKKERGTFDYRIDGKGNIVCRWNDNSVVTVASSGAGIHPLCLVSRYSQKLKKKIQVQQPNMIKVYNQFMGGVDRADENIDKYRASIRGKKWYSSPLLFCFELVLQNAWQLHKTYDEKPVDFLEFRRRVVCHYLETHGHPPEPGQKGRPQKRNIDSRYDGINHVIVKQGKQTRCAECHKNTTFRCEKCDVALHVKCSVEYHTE

Key:
Assay in all cases: co-IP; nuclear lysates of UVSS1KO cells stably expressing FLAG-HA-tagged proteins; IP with anti-FLAG, anti-c-Jun or nonspecific antibody in IP50 buffer (10 mM TrisHCl, 50 mM KCl, 0.1 mM EDTA, 10% glycerol), Protein G Dynabeads; Western blot with anti-c-Jun or anti-FLAG
[1] = biological target: c-Jun (human (endogenous in UVSS1KO)) (UniProt P05412)
[2] = biological target: FLAG-HA-tagged CSB-PGBD3 fusion protein (human) (UniProt P0DP91)
[3] = biological target: FLAG-HA-tagged full-length CSB (human), Q03468; settings: remark: other sources report otherwise

FLAG-HA-tagged CSB-PGBD3 fusion protein (from UniProt P0DP91 1-1061)
binding [1]: binds

c-Jun (from UniProt P05412 1-331)
binding [2]: binds

B1: c-Jun, P05412 1-331 (protein)
chain: MTAKMETTFYDDALNASFLPSESGPYGYSNPKILKQSMTLNLADPVGSLKPHLRAKNSDLLTSPDVGLLKLASPELERLIIQSSNGHITTTPTPTQFLCPKNVTDEQEGFAEGFVRALAELHSQNTLPSVTSAAQPVNGAGMVAPAVASVAGGSGSGGFSASLHSEPPVYANLSNFNPGALSSGGGAPSYGAAGLAFPAQPQQQQQPPHHLPQQMPVQHPRLQALKEEPQTVPEMPGETPPLSPIDMESQERIKAERKRMRNRIAASKCRKRKLERIARLEEKVKTLKAQNSELASTANMLREQVAQLKQKVMNHVNSGCQLMLTQQLQTF
binding [3]: no binding
